According to PMC2958818:
No constants are given. Whether binding was seen depends on the method and setting. Some entries that bind do so weakly or less than the wild type. Tags and fused reporters may be left off the sequences shown.

By UniProt entry, the sequences of proteins in these tests, tags left out. Where a name states a change or a piece, a line headed by the entry shows the natural chain unless it says otherwise.
UniProt Q92878: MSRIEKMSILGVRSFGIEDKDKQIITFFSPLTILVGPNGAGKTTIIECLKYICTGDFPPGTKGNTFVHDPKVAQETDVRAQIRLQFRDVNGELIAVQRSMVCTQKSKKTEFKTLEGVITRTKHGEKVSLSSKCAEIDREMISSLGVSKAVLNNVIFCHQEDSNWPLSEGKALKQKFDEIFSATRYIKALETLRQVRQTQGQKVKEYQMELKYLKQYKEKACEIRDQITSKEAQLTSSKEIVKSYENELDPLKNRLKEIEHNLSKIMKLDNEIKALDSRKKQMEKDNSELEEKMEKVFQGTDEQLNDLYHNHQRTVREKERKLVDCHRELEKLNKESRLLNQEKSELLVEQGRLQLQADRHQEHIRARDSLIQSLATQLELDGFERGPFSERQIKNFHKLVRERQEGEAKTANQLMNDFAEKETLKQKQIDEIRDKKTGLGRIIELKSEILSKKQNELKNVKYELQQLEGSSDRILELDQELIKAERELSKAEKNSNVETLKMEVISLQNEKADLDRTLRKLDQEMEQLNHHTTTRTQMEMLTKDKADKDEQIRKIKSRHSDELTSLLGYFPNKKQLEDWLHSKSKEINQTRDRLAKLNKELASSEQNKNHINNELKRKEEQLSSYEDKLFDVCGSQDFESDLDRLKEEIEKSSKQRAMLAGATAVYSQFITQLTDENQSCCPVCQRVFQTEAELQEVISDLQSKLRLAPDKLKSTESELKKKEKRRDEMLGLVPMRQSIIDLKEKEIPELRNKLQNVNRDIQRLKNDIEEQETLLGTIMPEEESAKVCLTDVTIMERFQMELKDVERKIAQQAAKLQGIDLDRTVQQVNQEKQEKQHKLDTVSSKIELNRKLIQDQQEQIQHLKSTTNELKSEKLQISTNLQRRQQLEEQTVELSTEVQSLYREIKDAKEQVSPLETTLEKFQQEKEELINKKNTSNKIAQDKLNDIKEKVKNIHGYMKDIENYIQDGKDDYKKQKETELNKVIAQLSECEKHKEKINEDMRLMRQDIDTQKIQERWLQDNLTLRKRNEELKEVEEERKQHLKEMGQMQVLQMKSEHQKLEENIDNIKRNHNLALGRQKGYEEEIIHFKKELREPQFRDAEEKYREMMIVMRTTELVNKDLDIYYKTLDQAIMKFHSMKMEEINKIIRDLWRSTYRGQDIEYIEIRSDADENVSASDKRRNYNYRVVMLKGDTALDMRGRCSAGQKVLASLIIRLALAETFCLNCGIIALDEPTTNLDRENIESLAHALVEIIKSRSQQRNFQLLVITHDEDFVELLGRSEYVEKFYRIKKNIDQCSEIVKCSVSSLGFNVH
UniProt P49959: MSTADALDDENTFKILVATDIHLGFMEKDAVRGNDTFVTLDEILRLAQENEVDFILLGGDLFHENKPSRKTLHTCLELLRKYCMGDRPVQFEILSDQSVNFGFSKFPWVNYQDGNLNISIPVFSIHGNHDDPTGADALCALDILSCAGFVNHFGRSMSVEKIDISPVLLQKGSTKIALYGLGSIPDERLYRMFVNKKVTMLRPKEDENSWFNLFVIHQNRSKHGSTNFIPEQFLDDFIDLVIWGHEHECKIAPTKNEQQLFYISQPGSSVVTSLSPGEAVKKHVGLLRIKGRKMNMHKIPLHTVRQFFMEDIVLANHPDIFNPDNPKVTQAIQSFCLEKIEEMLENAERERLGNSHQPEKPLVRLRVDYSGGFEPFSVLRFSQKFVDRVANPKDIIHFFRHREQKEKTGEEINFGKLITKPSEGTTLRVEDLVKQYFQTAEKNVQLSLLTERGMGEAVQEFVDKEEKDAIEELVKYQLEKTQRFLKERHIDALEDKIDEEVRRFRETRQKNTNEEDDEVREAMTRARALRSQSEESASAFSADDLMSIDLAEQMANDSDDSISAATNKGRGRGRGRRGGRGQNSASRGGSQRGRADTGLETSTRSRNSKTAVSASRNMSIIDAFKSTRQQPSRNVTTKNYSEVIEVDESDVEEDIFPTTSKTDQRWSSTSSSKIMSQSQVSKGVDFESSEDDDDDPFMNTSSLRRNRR
UniProt O60934: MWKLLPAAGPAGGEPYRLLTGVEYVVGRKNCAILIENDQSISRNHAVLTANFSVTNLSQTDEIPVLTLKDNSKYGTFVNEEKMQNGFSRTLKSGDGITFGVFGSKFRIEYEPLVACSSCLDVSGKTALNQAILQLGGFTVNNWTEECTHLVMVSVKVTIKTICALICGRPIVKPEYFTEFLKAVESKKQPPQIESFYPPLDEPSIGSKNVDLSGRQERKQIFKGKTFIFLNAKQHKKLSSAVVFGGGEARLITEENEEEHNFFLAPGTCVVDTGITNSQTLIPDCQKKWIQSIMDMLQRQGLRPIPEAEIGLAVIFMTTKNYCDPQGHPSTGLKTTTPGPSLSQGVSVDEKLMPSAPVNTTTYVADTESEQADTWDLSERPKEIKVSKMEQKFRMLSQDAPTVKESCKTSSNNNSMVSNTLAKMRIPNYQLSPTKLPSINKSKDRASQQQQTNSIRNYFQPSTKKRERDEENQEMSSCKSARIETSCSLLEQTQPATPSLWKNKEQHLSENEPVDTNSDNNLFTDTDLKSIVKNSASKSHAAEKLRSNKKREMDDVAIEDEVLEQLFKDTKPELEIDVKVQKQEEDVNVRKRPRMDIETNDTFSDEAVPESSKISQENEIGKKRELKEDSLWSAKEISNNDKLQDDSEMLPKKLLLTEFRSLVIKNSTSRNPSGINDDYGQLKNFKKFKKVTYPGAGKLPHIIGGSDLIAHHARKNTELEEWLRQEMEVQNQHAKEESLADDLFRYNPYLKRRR

Legend:
[1] = biological target: biotinylated human MRN (E185) complex (Mre11, Rad50, Nbs1 E185) (human) (UniProt Q92878+P49959+O60934); assay: pull-down; 20 nM biotinylated MRN complex incubated with 45 nM Mdc1 (aa 1-740) in buffer A (100 mM NaCl, 25 mM Tris pH8, 10% glycerol, 1 mM DTT) 1 hour at 30°C, isolated with streptavidin-coated magnetic beads with 0.2% CHAPS at 4°C; western blot anti-Flag and anti-Nbs1; both purified
[2] = biological target: biotinylated human MRN (Q185) complex (Mre11, Rad50, Nbs1 Q185) (human) (UniProt Q92878+P49959+O60934); assay: as above

B1: N-terminal Flag-tagged fragment of Mdc1 containing amino acids 1 to 740 (domain or fragment, UniProt Q14676 1-740)
chain: MEDTQAIDWDVEEEEETEQSSESLRCNVEPVGRLHIFSGAHGPEKDFPLHLGKNVVGRMPDCSVALPFPSISKQHAEIEILAWDKAPILRDCGSLNGTQILRPPKVLSPGVSHRLRDQELILFADLLCQYHRLDVSLPFVSRGPLTVEETPRVQGETQPQRLLLAEDSEEEVDFLSERRMVKKSRTTSSSVIVPESDEEGHSPVLGGLGPPFAFNLNSDTDVEEGQQPATEEASSAARRGATVEAKQSEAEVVTEIQLEKDQPLVKERDNDTKVKRGAGNGVVPAGVILERSQPPGEDSDTDVDDDSRPPGRPAEVHLERAQPFGFIDSDTDAEEERIPATPVVIPMKKRKIFHGVGTRGPGAPGLAHLQESQAGSDTDVEEGKAPQAVPLEKSQASMVINSDTDDEEEVSAALTLAHLKESQPAIWNRDAEEDMPQRVVLLQRSQTTTERDSDTDVEEEELPVENREAVLKDHTKIRALVRAHSEKDQPPFGDSDDSVEADKSSPGIHLERSQASTTVDINTQVEKEVPPGSAIIHIKKHQVSVEGTNQTDVKAVGGPAKLLVVSLEEAWPLHGDCETDAEEGTSLTASVVADVRKSQLPAEGDAGAEWAAAVLKQERAHEVGAQGGPPVAQVEQDLPISRENLTDLVVDTDTLGESTQPQREGAQVPTGREREQHVGGTKDSEDNYGDSEDLDLQATQCFLENQGLEAVQSMEDEPTQAFMLTPPQELGPSHCSFQTT
[1]
  binding: binds
[2]
  binding: binds
